For the experiment, the target named is BRS1-GFP (Arabidopsis) (UniProt Q9M099). In words: pull-down; BRS1-GFP pull-down, proteins identified listed in Table S2; no methods given.

Amino acid sequences for entries named in this document (tags omitted). A change or cut given only in a name is not applied to a line headed by its entry.
UniProt Q9M099: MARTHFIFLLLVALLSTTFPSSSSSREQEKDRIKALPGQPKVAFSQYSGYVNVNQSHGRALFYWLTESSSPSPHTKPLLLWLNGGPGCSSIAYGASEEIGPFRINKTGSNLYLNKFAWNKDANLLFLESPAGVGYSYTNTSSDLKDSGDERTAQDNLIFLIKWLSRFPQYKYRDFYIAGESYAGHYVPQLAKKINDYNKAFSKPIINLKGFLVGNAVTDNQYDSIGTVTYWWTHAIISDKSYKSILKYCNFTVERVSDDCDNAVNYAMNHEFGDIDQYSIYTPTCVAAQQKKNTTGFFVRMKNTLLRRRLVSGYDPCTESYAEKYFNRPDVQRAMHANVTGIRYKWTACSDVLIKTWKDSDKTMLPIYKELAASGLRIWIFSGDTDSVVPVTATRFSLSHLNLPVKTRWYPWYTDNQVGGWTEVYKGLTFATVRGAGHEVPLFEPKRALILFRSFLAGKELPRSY
UniProt Q9SRZ6: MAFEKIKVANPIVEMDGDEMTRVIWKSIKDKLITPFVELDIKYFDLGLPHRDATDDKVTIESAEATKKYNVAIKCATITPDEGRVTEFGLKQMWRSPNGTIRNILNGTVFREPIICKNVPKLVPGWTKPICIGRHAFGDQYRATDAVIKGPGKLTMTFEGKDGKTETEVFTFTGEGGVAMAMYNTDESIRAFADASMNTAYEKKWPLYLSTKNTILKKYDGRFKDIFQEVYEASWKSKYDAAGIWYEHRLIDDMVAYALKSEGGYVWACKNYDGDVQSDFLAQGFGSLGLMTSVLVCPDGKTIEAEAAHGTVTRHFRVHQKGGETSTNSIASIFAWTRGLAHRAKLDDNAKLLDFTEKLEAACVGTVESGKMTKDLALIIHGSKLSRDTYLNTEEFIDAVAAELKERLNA

Results are given in words; binding and its absence hold for the method and conditions named. Binding seen in cells or lysates may run through a third protein.

Turning to “cytosolic NADP+-dependent isocitrate dehydrogenase (cICDH), as looked for in the BRS1-GFP pull-down (from UniProt Q9SRZ6 1-410) (enzyme)”, the binding entry is “no binding”.

The values are drawn from article PMC8193866.
